For this test, the target named is FUS recombinant protein (IP) (UniProt P35637). Briefly: co-IP; recombinant FUS (1 µg) incubated overnight at 4 °C with ETV5-CFP (1 µg) and/or MEF2A-mCherry (1 µg) and FUS antibody (sc-47711) or control IgG in 75 mM Hepes pH 7.3, 100 mM KOAc, 1% NP-40, 2.5% glycerol, 0.5 mM DTT; A/G magnetic beads, washed three times with RIPA; western blot for FUS, ETV5, MEF2A; both purified.

Chains of the proteins cited; added tags and fusions are not shown.
UniProt P35637: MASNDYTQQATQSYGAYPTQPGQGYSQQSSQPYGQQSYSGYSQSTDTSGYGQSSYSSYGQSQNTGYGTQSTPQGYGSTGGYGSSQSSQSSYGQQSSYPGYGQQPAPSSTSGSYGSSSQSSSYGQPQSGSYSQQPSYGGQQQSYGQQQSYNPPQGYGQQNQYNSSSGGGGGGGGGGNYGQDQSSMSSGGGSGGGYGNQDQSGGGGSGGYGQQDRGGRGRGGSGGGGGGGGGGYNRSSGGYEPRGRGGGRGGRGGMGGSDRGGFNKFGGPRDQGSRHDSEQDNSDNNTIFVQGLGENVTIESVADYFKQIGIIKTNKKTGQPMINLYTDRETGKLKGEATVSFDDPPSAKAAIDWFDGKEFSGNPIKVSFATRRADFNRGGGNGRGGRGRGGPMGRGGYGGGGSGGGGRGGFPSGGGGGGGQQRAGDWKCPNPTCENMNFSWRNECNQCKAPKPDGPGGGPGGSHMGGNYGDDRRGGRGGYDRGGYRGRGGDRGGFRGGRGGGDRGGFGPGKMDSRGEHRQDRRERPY
UniProt P41161: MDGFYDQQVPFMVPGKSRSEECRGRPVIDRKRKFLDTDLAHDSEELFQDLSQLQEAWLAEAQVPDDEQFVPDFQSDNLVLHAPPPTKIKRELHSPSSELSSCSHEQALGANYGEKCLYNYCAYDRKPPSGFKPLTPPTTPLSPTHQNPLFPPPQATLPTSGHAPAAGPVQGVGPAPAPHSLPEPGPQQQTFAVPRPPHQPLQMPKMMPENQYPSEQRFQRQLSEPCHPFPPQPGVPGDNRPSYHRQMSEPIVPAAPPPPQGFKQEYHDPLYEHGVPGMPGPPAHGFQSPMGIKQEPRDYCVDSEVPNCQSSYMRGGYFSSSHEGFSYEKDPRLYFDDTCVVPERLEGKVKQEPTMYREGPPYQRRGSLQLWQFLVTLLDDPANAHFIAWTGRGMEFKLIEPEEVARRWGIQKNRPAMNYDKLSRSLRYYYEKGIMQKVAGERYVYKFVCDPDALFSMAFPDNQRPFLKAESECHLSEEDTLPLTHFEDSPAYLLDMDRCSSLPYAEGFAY
UniProt Q02078: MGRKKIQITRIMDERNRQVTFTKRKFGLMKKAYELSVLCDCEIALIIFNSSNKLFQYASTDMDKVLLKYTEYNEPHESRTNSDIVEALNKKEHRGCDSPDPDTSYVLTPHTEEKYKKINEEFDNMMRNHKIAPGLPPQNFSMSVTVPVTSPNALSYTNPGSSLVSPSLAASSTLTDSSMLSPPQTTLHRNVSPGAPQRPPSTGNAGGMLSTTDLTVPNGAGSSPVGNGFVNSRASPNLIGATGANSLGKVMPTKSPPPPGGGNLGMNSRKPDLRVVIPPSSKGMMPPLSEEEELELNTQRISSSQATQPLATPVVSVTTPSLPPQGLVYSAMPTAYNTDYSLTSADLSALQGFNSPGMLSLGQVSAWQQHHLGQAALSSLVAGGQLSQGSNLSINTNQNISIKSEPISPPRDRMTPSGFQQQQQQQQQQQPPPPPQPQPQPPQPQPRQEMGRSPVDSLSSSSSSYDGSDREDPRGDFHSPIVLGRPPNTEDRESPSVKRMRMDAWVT

These are yes or no findings as the source states them, for the method shown. Some entries that bind do so weakly or less than the wild type.

On to ETV5-CFP (from UniProt P41161 1-510), for which the binding result is given as “binds”.
The entry for “MEF2A-mCherry (from UniProt Q02078 1-507)” is “binds”.
